This passage reports binding results from publication PMC11850723.

Chains of the proteins cited; added tags and fusions are not shown. Lines headed by an entry give the natural chain unless they say otherwise; changes in a name come on top.
UniProt P32897: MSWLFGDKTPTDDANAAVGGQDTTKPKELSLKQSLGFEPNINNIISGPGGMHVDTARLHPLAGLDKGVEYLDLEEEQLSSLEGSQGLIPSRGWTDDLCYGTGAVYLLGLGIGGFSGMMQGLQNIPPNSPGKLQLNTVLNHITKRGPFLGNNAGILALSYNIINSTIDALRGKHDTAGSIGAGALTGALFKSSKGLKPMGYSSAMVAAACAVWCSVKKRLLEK

No constants are given. Whether binding was seen depends on the method and setting. In cells and extracts the contact can be indirect. Binding calls can cover weak binding; strength is not graded here. For some assays here: Tags and fused reporters may be left off the sequences shown.

The target of test [1] is T1, Dbi1 (disulfide bond formation in inner membrane proteins), protein encoded by ORF YDL157c (S. cerevisiae (endogenous in YPH499 mitochondria)) (UniProt Q12082).
T1 sequence: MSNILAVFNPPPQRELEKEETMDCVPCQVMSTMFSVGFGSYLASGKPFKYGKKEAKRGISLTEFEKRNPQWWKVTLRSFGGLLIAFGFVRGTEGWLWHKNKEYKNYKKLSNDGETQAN
Description: cross-linking; DSG in intact energized mitochondria (SI buffer, 30 min on ice); SDS-PAGE and western blotting with Tim23N antibodies. (A western blot detects proteins with antibodies after separation by electrophoresis.)

The target of test [2] is T2, Dbi1 genomically tagged with a C-terminal His-tag (S. cerevisiae) (UniProt Q12082).
T2 sequence: T1 sequence
Description: cross-linking; DSG in intact energized mitochondria (SI buffer, 30 min on ice); then solubilized in 1% SDS, diluted, bound to NiNTA-agarose by the His-tag of Dbi1; western blotting with Tim23N antibodies.

Consider “Tim23-87A5 (Tim23 of the tim23-87A5 mutant) (from UniProt P32897)”, for which the binding result in test [1] and in test [2] was “binds” throughout.
